Reference: patent US20120282269A1 (Boehringer Ingelheim, published 2012)
These are yes or no findings as the source states them, for the method shown. Some binding calls cover weakened binding; strength is not graded here.

The chains behind the UniProt entries cited, without tags or fusion partners. Where a name states a change or a piece, a line headed by the entry shows the natural chain unless it says otherwise. Residues count along the entry.
UniProt Q5VWK5, residues 24-353: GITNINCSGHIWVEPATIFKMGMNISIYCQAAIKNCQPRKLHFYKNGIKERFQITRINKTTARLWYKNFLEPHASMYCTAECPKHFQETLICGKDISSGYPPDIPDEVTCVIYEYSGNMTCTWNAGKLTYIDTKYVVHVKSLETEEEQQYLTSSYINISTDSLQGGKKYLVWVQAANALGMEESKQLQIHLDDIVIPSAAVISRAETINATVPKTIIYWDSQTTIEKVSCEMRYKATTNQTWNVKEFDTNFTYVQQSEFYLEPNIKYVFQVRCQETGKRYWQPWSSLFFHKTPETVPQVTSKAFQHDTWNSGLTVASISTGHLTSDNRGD
UniProt P29460: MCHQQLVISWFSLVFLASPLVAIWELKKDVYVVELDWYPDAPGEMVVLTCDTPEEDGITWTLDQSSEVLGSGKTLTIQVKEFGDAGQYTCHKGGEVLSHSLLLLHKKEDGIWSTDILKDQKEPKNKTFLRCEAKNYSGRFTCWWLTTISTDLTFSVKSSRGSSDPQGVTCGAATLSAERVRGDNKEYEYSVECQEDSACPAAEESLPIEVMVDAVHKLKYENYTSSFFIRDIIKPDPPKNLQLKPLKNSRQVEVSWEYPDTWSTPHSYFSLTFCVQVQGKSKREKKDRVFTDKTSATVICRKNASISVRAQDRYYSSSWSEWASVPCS

Molecular target: Human IL-23R-Fc (human) (UniProt Q5VWK5)
Test: biosensor sensorgram (response in nm): human IL-23R-Fc captured on the sensor surface, 10 nM human IL-23 injected

binding: binds
Substance: recombinant human IL-23 (from UniProt P29460 23-328) (ligand)
